# Out of some 300,000 compounds screened, about 5,400 (1.8%) were called active. Inconclusive results, whose numbers are uncertain, are shown with a selection of clear calls. Calls follow the shape of the full dose curve; tested in HEK293 cells. Where the call is inconclusive, the potency comes from a doubtful curve fit.
# Experiment: qHTS for inhibitors of binding or entry into cells for Marburg Virus
# Details: Marburg virus pseudotyped entry inhibition, cell reporter; activity change, negative = inhibition: at 37.8 µM (top of the series) unless noted
# % is scaled to controls: 0 for no effect and ±100 for the full control effect; potency is read from the fitted curve at half-maximal effect.
SMILES,Potency,"activity change, negative = inhibition"
COC(=O)C1=C(C)N(CC2CC2)C(=O)NC1c1ccccc1 (stereo not given),inactive,
CC(C)c1ccc(CN2CC(C(=O)Nc3ccccc3)CC2=O)cc1 (stereo not given),"inconclusive: 32.6 µM [activator, single point]",
Cc1cc(NCc2ccccc2)nc(N2CCOCC2)n1,inactive,
Cc1ccc(N=C2NC(=O)CC(C(=O)Nc3cc(C(F)(F)F)ccc3Cl)S2)cc1 (stereo not given),inactive,
O=C(CSc1ccc2c(c1)OCCO2)N1CCN(c2ccccc2O)CC1,inactive,
CCOC(=O)c1cnn(-c2ccccc2)c1-c1ccccc1,"inconclusive: 22.4 µM [inhibitor, single point]",
COC(=O)C1CCN(CC(=O)Nc2ccc3c(c2)OCCO3)CC1,"inconclusive: 2.82 µM [activator, full curve, poor fit]",
CCOc1ccc(-c2c(=O)n(OCc3ccc([N+](=O)[O-])cc3)c3ccccc3[n+]2[O-])c(OCC)c1,inactive,
CN(C)S(=O)(=O)c1cccc(NC(=O)c2ccccc2OCc2ccc(F)cc2)c1,inactive,
O=C1c2ccccc2NC(c2ccc(-c3cccc([N+](=O)[O-])c3)o2)N1O (stereo not given),"inconclusive: 32.6 µM [inhibitor, single point]",
Cc1cc(C)c2cc(CN(CC3CCCO3)S(=O)(=O)c3ccc4c(c3)OCCO4)c(=O)[nH]c2c1 (stereo not given),"inconclusive: 29.1 µM [inhibitor, single point]",
O=C(Nc1ccc(Cl)cn1)c1cc2ccccc2o1,"inconclusive: 12.6 µM [inhibitor, single point]",
CCOc1ccc(-c2nnc(SCC(=O)Nc3ccc(C)cc3Cl)o2)cc1,inactive,
O=C(CSc1cccc[n+]1[O-])Nc1cccc(Oc2ccccc2)c1,inactive,
COc1ccccc1C(CNC(=O)c1cccc(NS(=O)(=O)c2ccc(Br)cc2)c1)N(C)C (stereo not given),"inconclusive: 35.5 µM [inhibitor, single point]",
NC(=O)COc1ccc2cc(-c3ccc(F)cc3)c(=O)oc2c1,inactive,
CCOCCCNC(=O)C(NC(=O)c1ccc(NC(C)=O)cc1)c1ccc(C)cc1 (stereo not given),"inconclusive: 12.6 µM [activator, single point]",
COc1ccc(CNc2nc3ccccc3s2)cc1OC,"inconclusive: 35.5 µM [inhibitor, single point]",
Cc1ccc(F)cc1CNC(=O)c1cc(COc2ccc3ncccc3c2)on1,"inconclusive: 7.08 µM [inhibitor, partial curve, poor fit]",
N[C@H](C(=O)O)[C@H](Cc1ccccc1)C(=O)O,inactive,
Cc1cccc(OCCn2c(NC(=O)c3ccco3)nc3ccccc32)c1,"inconclusive: 10.3 µM [inhibitor, partial curve, poor fit]",
Cc1c(-c2ccccc2)nc2ccccc2c1C(=O)Nc1ccncc1,"inconclusive: 28.2 µM [inhibitor, partial curve, poor fit]",
COc1cc([N+](=O)[O-])cc(/C=N/NC(=O)C(C)Nc2ccccc2C)c1O (stereo not given),"inconclusive: 35.5 µM [inhibitor, single point]",

# As entered above:
# Value for CCOC(=O)c1cnn(-c2ccccc2)c1-c1ccccc1 under Potency: inconclusive: 22.4 µM [inhibitor, single point]
# Value for NC(=O)COc1ccc2cc(-c3ccc(F)cc3)c(=O)oc2c1 under Potency: inactive

# Next part.

SMILES,Potency,"activity change, negative = inhibition"
Cn1c(=O)c(=O)n(C)c2cc(N3CCCC3)c(NC(=O)c3ccccc3F)cc21,inactive,
Cc1cc(C)cc(C(=O)NCC(=O)NCc2ccc(S(N)(=O)=O)cc2)c1,"inconclusive: 35.5 µM [activator, single point]",
CC1C(=O)N2CCCc3cc(NC(=O)C(=O)NCCCc4ccccc4)cc1c32 (stereo not given),"inconclusive: 35.5 µM [inhibitor, single point]",
Cn1nnnc1SCC(=O)c1ccco1,inactive,
COC(=O)c1ccc(C[n+]2ccccc2)cc1,"inconclusive: 2.51 µM [inhibitor, single point]",
Cc1ccc(N2C(=O)c3ccccc3C2=O)cc1C,inactive,
CC/C(=N/Nc1ccccc1)c1cnnc(SC)n1,"inconclusive: 3.55 µM [activator, partial curve, poor fit]",
CCN1C(=O)C(CC(=O)NC2CCCCC2)N(CC)C1=O (stereo not given),"inconclusive: 0.0041 µM [inhibitor, full curve, poor fit]",
CN(CC(=O)N1CCCc2c1c(=O)oc1ccc(O)cc21)Cc1ccccc1,inactive,
CCN1C(=O)NC(c2cccs2)C(C(C)=O)=C1C (stereo not given),"inconclusive: 0.422 µM [inhibitor, full curve, poor fit]",
COc1ccc(-c2nnc(SCC(=O)NCc3ccco3)o2)cc1,inactive,
O=C(NC1CCS(=O)(=O)C1)c1sc2ccccc2c1Cl (stereo not given),inactive,
COc1ccc2nc(N3CCCC(C(=O)NCCc4ccc(OC)c(OC)c4)C3)sc2c1 (stereo not given),"inconclusive: 35.5 µM [inhibitor, single point]",
O=C1CN(C(=O)c2ccccc2F)C(c2ccc(F)cc2)c2cc(Br)ccc2N1 (stereo not given),"inconclusive: 22.4 µM [inhibitor, single point]",
CC1=C2CCC3C(CCC4=CC(=O)CCC43C)C2CC1 (stereo not given),"inconclusive: 35.5 µM [inhibitor, single point]",
Cc1ccc(NC(=O)CS(=O)CC(=O)N(c2ccc(C)cc2)C(C)C(=O)NC2CCCCC2)cc1 (stereo not given),"inconclusive: 14.1 µM [inhibitor, single point]",
O=C(Oc1ccc2ccccc2c1Cl)N1CCCCCC1,"inconclusive: 1.41 µM [inhibitor, partial curve, poor fit]",
C[n+]1ccccc1COc1ccc(C(C)(C)C)cc1,"inconclusive: 35.5 µM [inhibitor, single point]",
Cc1ccc(NC(=O)N2CCN(c3ccc(Cl)c(Cl)c3)CC2)cc1,,inconclusive: 6.71% [activator] [at 46.1 µM]
O=C(NCCNC(=O)c1ccc(-c2ccc(Cl)c(Cl)c2)o1)c1cnccn1,"inconclusive: 35.5 µM [inhibitor, single point]",
CN1CCN(c2ccc(NC(=O)Oc3ccccc3)cc2)CC1,"inconclusive: 1.12 µM [inhibitor, full curve, poor fit]",
CC(=O)Nc1ccc(C(=O)Nc2cc(C(F)(F)F)ccc2-n2cnc3ccccc32)cc1,"inconclusive: 25.1 µM [inhibitor, partial curve, poor fit]",

# Source: PubChem BioAssay AID540276 (National Center for Advancing Translational Sciences (NCATS), 2011)
